For 72 sequences, binding signal results are on record in PMC7862700.

The chains behind the UniProt entries cited, without tags or fusion partners. Where a name states a change or a piece, a line headed by the entry shows the natural chain unless it says otherwise.
UniProt P50549: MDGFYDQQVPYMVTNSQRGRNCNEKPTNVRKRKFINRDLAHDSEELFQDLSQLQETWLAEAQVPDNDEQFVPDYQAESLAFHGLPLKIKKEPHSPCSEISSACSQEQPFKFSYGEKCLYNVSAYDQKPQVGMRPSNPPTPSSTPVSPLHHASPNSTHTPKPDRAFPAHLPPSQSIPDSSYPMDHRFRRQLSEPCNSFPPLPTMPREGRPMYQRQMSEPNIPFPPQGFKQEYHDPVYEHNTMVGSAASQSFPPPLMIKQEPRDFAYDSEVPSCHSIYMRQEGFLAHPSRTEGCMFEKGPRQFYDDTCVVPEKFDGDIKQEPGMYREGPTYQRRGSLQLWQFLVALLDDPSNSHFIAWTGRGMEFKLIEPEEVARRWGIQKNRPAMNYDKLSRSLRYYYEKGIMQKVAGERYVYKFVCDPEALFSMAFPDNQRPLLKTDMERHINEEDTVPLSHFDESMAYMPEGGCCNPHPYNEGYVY

This is a selection; strong and weak results do not stand in their true shares. For part of these data: At the low end of the ranking, values are background and their order means little. The list shows a part of the results. For part of these data: The exact form of the protein is not confirmed.

Holding throughout (assay): DAPPL (digital affinity profiling via proximity ligation, sequencing)
Common to all, as to conditions: 10 mM Tris-HCl pH 7.5, 50 mM NaCl, 1 mM DTT, 4% glycerol, room temperature, 30 min; GST-TFs on glutathione beads, 16-mer random dsDNA library, 0.1% …; high values mean tight binding; double strand, one strand shown; scale: fold enrichment (6-mer frequency, TF over GST control)

One test concerns the target T1, ELK4 (UniProt P28324-2).
T1 sequence: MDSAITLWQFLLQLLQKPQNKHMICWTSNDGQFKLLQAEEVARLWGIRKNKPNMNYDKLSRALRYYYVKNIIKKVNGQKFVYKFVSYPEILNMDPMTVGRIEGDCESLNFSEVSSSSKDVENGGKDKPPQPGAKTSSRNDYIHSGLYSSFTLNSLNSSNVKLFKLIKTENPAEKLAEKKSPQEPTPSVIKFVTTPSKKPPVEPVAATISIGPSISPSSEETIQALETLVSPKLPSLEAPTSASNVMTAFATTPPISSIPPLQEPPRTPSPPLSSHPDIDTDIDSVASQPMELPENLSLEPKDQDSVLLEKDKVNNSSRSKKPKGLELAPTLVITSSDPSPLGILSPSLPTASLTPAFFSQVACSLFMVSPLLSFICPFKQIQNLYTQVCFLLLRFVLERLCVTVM

For the next test, the target named is T2, ETV4 (UniProt P43268).
T2 sequence: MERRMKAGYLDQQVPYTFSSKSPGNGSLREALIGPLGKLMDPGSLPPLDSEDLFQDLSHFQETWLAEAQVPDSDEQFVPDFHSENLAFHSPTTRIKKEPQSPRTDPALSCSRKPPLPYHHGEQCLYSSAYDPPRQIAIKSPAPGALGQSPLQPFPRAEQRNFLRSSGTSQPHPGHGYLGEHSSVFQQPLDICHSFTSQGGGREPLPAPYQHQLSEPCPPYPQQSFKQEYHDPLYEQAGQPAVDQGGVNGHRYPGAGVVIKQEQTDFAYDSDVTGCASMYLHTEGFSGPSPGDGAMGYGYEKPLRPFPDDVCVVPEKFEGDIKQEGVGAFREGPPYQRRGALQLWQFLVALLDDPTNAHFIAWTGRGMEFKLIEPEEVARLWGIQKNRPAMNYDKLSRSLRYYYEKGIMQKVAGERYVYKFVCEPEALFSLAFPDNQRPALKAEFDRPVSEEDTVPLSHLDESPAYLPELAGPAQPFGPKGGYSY

The target of the next test is T3, ERG (UniProt P11308).
T3 sequence: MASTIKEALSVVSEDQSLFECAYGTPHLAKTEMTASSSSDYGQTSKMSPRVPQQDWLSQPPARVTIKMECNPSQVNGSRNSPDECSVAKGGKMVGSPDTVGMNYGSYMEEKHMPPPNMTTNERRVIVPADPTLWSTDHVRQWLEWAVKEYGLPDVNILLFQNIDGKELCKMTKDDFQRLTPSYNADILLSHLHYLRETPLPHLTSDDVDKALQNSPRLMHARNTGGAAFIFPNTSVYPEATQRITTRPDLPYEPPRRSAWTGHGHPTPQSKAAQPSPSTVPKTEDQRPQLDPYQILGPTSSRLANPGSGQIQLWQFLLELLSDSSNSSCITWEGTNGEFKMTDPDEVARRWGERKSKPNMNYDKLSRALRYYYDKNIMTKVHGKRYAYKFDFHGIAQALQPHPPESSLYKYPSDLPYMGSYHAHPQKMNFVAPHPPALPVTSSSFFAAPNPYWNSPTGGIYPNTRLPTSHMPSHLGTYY

Another test addresses ETV1 (UniProt P50549).

Consider GTACGC, for which the values for the binding signal in the test with ELK4 and with ETV4 were 0.989 and 1.13, respectively.
With GCTCTC, the binding signal was 1.42 in the test with ERG, 1.56 with ELK4 and 1.46 with ETV4.
For TAGCAG, the results for the binding signal with ERG, with ELK4 and in the test with ETV4 were 1.11, 0.989 and 1.09, respectively.
Consider GACCGG, for which the binding signal stood at 1.31 with ERG, 0.893 with ELK4 and 1.21 in the test with ETV4.
CGACTG: the binding signal with ELK4 is 1.22; with ETV4 it was 1.15.
For CACTCA, the binding signal with ERG came to 1.16; with ELK4 it was 1.17; with ETV4, 1.16.
On to CAATGA, for which the binding signal in the test with ERG was determined as 1.03; in the test with ELK4, 1.12; with ETV4, 1.01.
With GCTGAC, the values for the binding signal in the test with ERG, in the test with ELK4 and with ETV4 were 0.988, 1.05 and 1.09, respectively.
As for TCTGGA, the binding signal in the test with ERG is 1.04; in the test with ELK4 it was 0.954; with ETV4, 1.06.
For the sequence ACTTGG, the binding signal with ELK4 stood at 1.28; with ETV4, 1.22.
With CCTAAC, the binding signal in the test with ELK4 turned out to be 1.36; with ETV4 it was 1.41.
In the case of ATAAGC, the binding signal with ERG was determined as 1.08; with ELK4 it was 0.981; with ETV4, 1.02.
For the sequence CAATTT, the binding signal stood at 1.43 with ERG, 1.31 with ELK4 and 1.42 with ETV4.
For the sequence TGATCG, the binding signal with ERG worked out at 0.99; with ELK4, 1.13; with ETV4, 1.07.
Consider CATTGT, for which the binding signal with ERG is 1.12; in the test with ELK4, 1.17; with ETV4 it was 1.15.
For GCTTGT, the binding signal came out at 0.972 with ELK4 and 1.18 with ETV4.
For the sequence CATAGC, the binding signal was found to be 0.941 in the test with ERG, 0.922 with ELK4 and 0.965 with ETV4.
For AACACC, the binding signal in the test with ERG turned out to be 1.15; with ELK4, 1.13; with ETV4, 1.09.
On the same counts, the results for CACAAA are 1.12, 0.991 and 1.05.
For CCGACG, the values for the binding signal with ELK4 and in the test with ETV4 were 1.22 and 1.28, respectively.
TGCGGC: the results for the binding signal with ERG, with ELK4 and with ETV4 were 0.951, 0.935 and 1.06, respectively.
Take CGATCA: the binding signal with ELK4 worked out at 1.07; with ETV4, 1.15.
For TTGTTG, the binding signal was determined as 1.19 with ELK4 and 1.12 with ETV4.
Regarding TCTCAT, the binding signal with ELK4 is 1.37; with ETV4, 1.34.
TAAAAA: the binding signal in the test with ERG came out at 1.26; in the test with ELK4, 1.34; with ETV4, 1.23.
In the same order, the values of GCCTGA are 0.971, 1.07 and 1.04.
For the sequence CTACAG, the binding signal in the test with ERG amounted to 1.03; with ELK4, 1.07; with ETV4, 1.12.
For AATCCT, the results for the binding signal in the test with ELK4 and with ETV4 were 1.33 and 1.25, respectively.
In the same order, the values of TTCCCG are 1.69 and 1.92.
Regarding TGACCC, the binding signal in the test with ELK4 turned out to be 1.39; with ETV4, 1.37.
On to CAAGAA, for which the figures for the binding signal with ERG, in the test with ELK4 and with ETV4 were 1.11, 0.916 and 0.993, respectively.
For AATCAC, the figures for the binding signal with ERG, with ELK4 and with ETV4 were 1.08, 1.11 and 1.09, respectively.
Regarding ATAAAA, the binding signal with ERG amounted to 1.09; with ELK4, 1.17; with ETV4 it was 1.12.
In the case of AAGTAG, the values for the binding signal with ERG, with ELK4 and in the test with ETV4 were 1.24, 1.06 and 1.23, respectively.
In the case of CGGCCT, the figures for the binding signal in the test with ELK4 and in the test with ETV4 were 1.13 and 1.24, respectively.
With CGCACA, the binding signal with ERG came to 1.02; in the test with ELK4, 0.999; in the test with ETV4, 1.01.
For the sequence CATCAT, the binding signal worked out at 1.11 in the test with ELK4 and 1.09 in the test with ETV4.
On to CTCGAC, for which the binding signal came to 1.49 with ELK4 and 1.51 in the test with ETV4.
Consider GAATTG, for which the figures for the binding signal with ELK4 and with ETV4 were 1.04 and 1.08, respectively.
Turning to TTAGCC, the values for the binding signal with ERG, with ELK4 and with ETV4 were 0.952, 0.97 and 1.03, respectively.
As to GATTTA, the binding signal with ERG is 0.901; in the test with ELK4, 1.02; in the test with ETV4, 0.956; with ETV1 it was 0.91.
On to CTGGTG, for which the binding signal is 0.965 with ERG, 0.881 with ELK4, 1.01 with ETV4 and 0.919 in the test with ETV1.
Regarding GCCCCC, the binding signal with ERG was 1.03; with ELK4 it was 1.18; with ETV4, 1.18.
Consider ATAGGC, for which the binding signal turned out to be 1.01 with ERG, 0.935 with ELK4 and 0.994 with ETV4.
With TAGAAC, the binding signal was 0.971 in the test with ERG, 0.99 with ELK4, 1.04 in the test with ETV4 and 1.07 with ETV1.
Turning to GCATCT, the binding signal in the test with ERG turned out to be 0.927; with ELK4 it was 0.954; with ETV4, 1.06.
Consider TTACCT, for which the results for the binding signal with ERG, in the test with ELK4 and with ETV4 were 1.17, 1.32 and 1.26, respectively.
As for GCTTAA, the binding signal with ERG was 0.944; with ELK4, 0.981; with ETV4, 1.02; with ETV1 it was 0.953.
Regarding AGTGTT, the binding signal with ERG was 1.15; with ELK4, 1.08; with ETV4 it was 1.07.
With CGTACG, the binding signal in the test with ERG stood at 0.997; in the test with ELK4, 0.971; in the test with ETV4 it was 1.03.
In the same order, the values of CAGGAA are 1.83, 1.37 and 1.56.
On the same counts, the results for CGACAT are 1.31, 1.3 and 1.26.
Turning to GTTATA, the binding signal with ERG came to 0.962; with ELK4 it was 0.945; with ETV4, 1.02; with ETV1 it was 0.979.
For the sequence CCCTTG, the binding signal with ERG was found to be 1.23; with ELK4, 1.2; in the test with ETV4, 1.25.
In the same order, the values of CCGGAC are 1.74, 1.15 and 1.7.
As for GATCCC, the figures for the binding signal in the test with ERG, with ELK4 and in the test with ETV4 were 1.23, 1.2 and 1.25, respectively.
For CACCCA, the binding signal turned out to be 0.998 with ERG, 1.04 with ELK4, 1.02 with ETV4 and 0.99 in the test with ETV1.
GGATGG: the binding signal with ERG came out at 0.996; in the test with ELK4 it was 0.911; with ETV4 it was 1.07.
Consider AGCACT, for which the binding signal was determined as 1.48 in the test with ERG, 1.31 in the test with ELK4, 1.42 in the test with ETV4 and 1.36 with ETV1.
Consider ATACTC, for which the binding signal in the test with ERG amounted to 1.3; in the test with ELK4, 1.23; with ETV4 it was 1.28.
CTGACG: the binding signal came out at 1.06 with ERG, 1.11 with ELK4 and 0.974 in the test with ETV4.
Turning to TTCCTA, the binding signal with ERG stood at 1.78; with ELK4, 1.52; in the test with ETV4, 1.63.
For TGTCGC, the binding signal with ERG was 0.964; with ELK4, 0.961; with ETV4 it was 0.884; with ETV1, 0.967.
With CTCGCG, the binding signal with ERG stood at 1.42; with ELK4, 1.59; with ETV4, 1.57.
For the sequence TAGACT, the binding signal in the test with ERG is 1.05; in the test with ELK4, 0.856; with ETV4, 1.03.
On to CATCAA, for which the binding signal with ERG was determined as 0.939; with ELK4 it was 0.94; in the test with ETV4, 1.01.
For ATCAAC, the binding signal worked out at 1.07 in the test with ERG, 1.14 with ELK4 and 1.13 in the test with ETV4.
In the same order, the values of TAACCG are 1.06, 0.987 and 1.03.
Take AACCGC: the binding signal came to 1.09 in the test with ERG, 0.981 in the test with ELK4 and 1.05 in the test with ETV4.
As for ATAAAG, the binding signal with ERG was determined as 1.12; in the test with ELK4, 1.16; with ETV4, 1.07; in the test with ETV1 it was 1.04.
With CAAACG, the binding signal stood at 0.983 with ERG, 1.05 with ELK4, 1.04 with ETV4 and 0.976 with ETV1.
On to CATACG, for which the results for the binding signal with ERG, with ELK4 and with ETV4 were 1.06, 1.07 and 1.07, respectively.
